# Measured values as given in PubChem BioAssay AID2685 (National Center for Advancing Translational Sciences (NCATS), 2010).
# The list shows a part of the results. The main result of the screen is listed elsewhere. These columns were measured beside it and carry no call. The list favours compounds with an active or inconclusive main result. The note in brackets gives the kind of curve behind each potency; many fits are weak.
# Experiment: qHTS Assay for Lipid Storage Modulators in Drosophila S3 Cells;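 on cell number change: cells counted by Cell Tracker Red CMTPX staining in the red channel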
# Conditions: BODIPY lipid droplet fluorescence, 18-24 h; for cell number change: measured here: cell count max response, cells fed with added oleic acid
# Method in brief: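 Laser-scanning cytometry quantifies lipid droplet accumulation (500–530 nm total intensity; droplet/cell object ratio) in oleic acid-fed (400 uM added) Drosophila S3 cells treated with a concentration series. 20 uM Triacsin C defined 100% inhibition.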
# [1] = measured here: lipid fluorescence (Fed channel) AC50, cells fed with added oleic acid
# [2] = measured here: cell number channel AC50, cells fed with added oleic acid
SMILES,cell number change,AC50 [1],AC50 [2]
COc1ccc(/C(C)=N\Nc2nc(-c3ccc(Cl)cc3)cc(C(F)(F)F)n2)cc1OC,-8.72%,"0.411 µM [rising, full curve, poor fit]",
COc1ccc(C2CC(=O)Oc3cc(O)cc(O)c32)cc1 (stereo not drawn),,,"0.731 µM [falling, single point]"
CCOc1ccc(NC(=O)CN(C)C(=O)c2ccccc2OCCOc2ccccc2)cc1OCC,-8.3%,"2.31 µM [rising, single point]",
NC(=O)C1CCN(CCC(=O)Nc2ccc(F)c(F)c2)CC1,15.8%,,"0.411 µM [rising, partial curve, poor fit]"
COc1cccc(OC)c1C(=O)N1CC(C)OC(C)C1 (stereo not drawn),-9.06%,"14.6 µM [falling, single point]",
Cc1cc(C)c(S(=O)(=O)NCC23C=CC(O2)C2C(=O)N(c4ccccc4)C(=O)C23)c(C)c1 (stereo not drawn),-80.2%,"29.1 µM [falling, single point]","29.1 µM [falling, single point]"
CC(Oc1ccc(S(=O)(=O)N2CCCC2)cc1[N+](=O)[O-])C(=O)NC(C)c1ccccc1 (stereo not drawn),-14.5%,"2.06 µM [falling, partial curve]",
Cc1cc(C(=O)CN2CCN(CC(=O)Nc3ccc(F)cc3)CC2)c(C)n1C1CC1,0.889%,"6.51 µM [falling, single point]",
Cc1sc2ncn(CC(=O)NCCCN3CCC(C)CC3)c(=O)c2c1S(=O)(=O)N1CCC(C)CC1,-8.55%,,
O=C(O)CN1C(=O)/C(=C\c2ccc(OC(=O)c3ccco3)cc2)SC1=S,24.3%,"6.51 µM [rising, single point]",
O=C(Nc1ccccc1C(=O)N1CCOCC1)c1ccc(Cl)cc1,-3.17%,"0.1 µM [falling, full curve, poor fit]",
O=C(OCc1nnc(-c2ccccc2)o1)c1cc([N+](=O)[O-])ccc1Cl,30.7%,"29.1 µM [rising, single point]","4.11 µM [rising, single point]"
COc1ccc(CCNC(=O)c2c(O)c3cccc4c3n(c2=O)CC4)cc1OC,14%,"2.59 µM [rising, full curve, poor fit]",
COc1ccc(/C=C/C(=O)C2CC2)cc1COc1cccc(C)c1C,19.7%,"1.64 µM [rising, partial curve, poor fit]","0.0461 µM [rising, partial curve, poor fit]"
COC(=O)Nc1cc(C(=O)c2ccc(Cl)cc2Cl)c[nH]1,17.5%,"32.6 µM [rising, single point]",
CC(=O)c1ccc(OCc2cc(C(=O)N(C)C3CCOC3)no2)cc1 (stereo not drawn),-4.86%,"0.259 µM [rising, full curve]",
CC1CCCC(NC(=O)Nc2cccs2)C1C (stereo not drawn),68.3%,"6.51 µM [rising, single point]","11.6 µM [rising, partial curve]"
CCOC(=O)c1c(-c2ccc(C)cc2)csc1NC(=O)c1cccc(N2C(=O)CCC2=O)c1,6.51%,"11.6 µM [falling, single point]",
COc1ccccc1N1C(=NC(=O)CCc2ccccc2)SC2CS(=O)(=O)CC21 (stereo not drawn),6.49%,,

# Record cards, as listed above.
# CC1CCCC(NC(=O)Nc2cccs2)C1C (stereo not drawn) is entered as cell number change: 68.3%; AC50 [1]: 6.51 µM [rising, single point]; AC50 [2]: 11.6 µM [rising, partial curve]
# O=C(O)CN1C(=O)/C(=C\c2ccc(OC(=O)c3ccco3)cc2)SC1=S is entered as cell number change: 24.3%; AC50 [1]: 6.51 µM [rising, single point]
# Cc1cc(C(=O)CN2CCN(CC(=O)Nc3ccc(F)cc3)CC2)c(C)n1C1CC1 is entered as cell number change: 0.889%; AC50 [1]: 6.51 µM [falling, single point]
# COc1ccc(/C(C)=N\Nc2nc(-c3ccc(Cl)cc3)cc(C(F)(F)F)n2)cc1OC is entered as cell number change: -8.72%; AC50 [1]: 0.411 µM [rising, full curve, poor fit]

# Later entries.

SMILES,cell number change,AC50 [1],AC50 [2]
COc1ccc(OC)c(NC(=O)CCc2nnc3ccc(NCc4ccco4)nn23)c1,-23.5%,,
CCc1ccc(CN(C)C(=O)C2CCC(=O)N(CCCN3CCCC3=O)C2)cc1 (stereo not drawn),,"0.58 µM [rising, single point]",
Nc1nnnn1/N=C/c1cc(Cl)cc(Cl)c1OCc1ccc(Cl)cc1Cl,5.6%,,
O=C1CN(C(=O)CSc2nc(-c3ccccc3)cs2)c2ccccc2N1,25%,"2.91 µM [rising, full curve, poor fit]",
CCCCc1nnc(NC(=O)CSc2nc(C)cc(=O)[nH]2)s1,14.4%,"0.13 µM [falling, full curve, poor fit]","1.16 µM [falling, full curve, poor fit]"
COc1cc2c(=O)n(CCCN3CCOCC3)c(=S)[nH]c2c(OC)c1OC,-12.6%,"2.91 µM [rising, single point]",
COc1ccc(C(OC(=O)c2ccco2)C(=O)NC2CCCC2)cc1 (stereo not drawn),,"25.9 µM [rising, single point]",
Cc1cccc(C)c1NC(=O)C(C)c1ccc(-c2ccccc2)c(F)c1 (stereo not drawn),-21.5%,"1.64 µM [rising, partial curve]",
CC(C)(C)OC(=O)Nc1ccc([C@H](NC(=O)OC(C)(C)C)C(=O)OC(C)(C)C)cc1,0.194%,,"1.03 µM [falling, single point]"
O=C(N/C=N/OCc1cccc(C(F)(F)F)c1)N1OC[C@@H]2COc3ccc4ccccc4c3[C@@H]21,22.3%,"2.91 µM [falling, partial curve]",
O=C(NC1CC(=O)N(c2cccc(F)c2)C1)N1CCN(C(=O)c2ccco2)CC1 (stereo not drawn),-9.01%,"14.6 µM [rising, partial curve]",
COC(=O)C1=C(C)N=c2s/c(=C/c3ccoc3)c(=O)n2C1c1ccccc1 (stereo not drawn),,"3.66 µM [falling, partial curve]","0.259 µM [rising, full curve, poor fit]"
Cc1ccc(O)c(NC(=O)C2CC(c3cccc(Br)c3)=NO2)c1 (stereo not drawn),18.2%,"16.4 µM [rising, single point]","0.517 µM [rising, partial curve, poor fit]"
Cc1c(NC(=O)Cn2[nH]c(=O)c3ccccc3c2=O)c(=O)n(-c2ccccc2)n1C,-4.59%,,"0.146 µM [falling, full curve]"
Cc1ccc2c(c1)C(c1ccc(N3CCOCC3)cc1)=NNC(c1cccs1)=N2,15%,,
CN(Cc1ccc(Cl)cc1)C(=O)COC(=O)CSc1ccc([N+](=O)[O-])cc1,-24.5%,"1.84 µM [falling, single point]",
C=CCOc1ccccc1CNc1ccc2[nH]c(=O)[nH]c2c1,6.04%,,
O=[n+]1cc(-c2ccc(F)cc2)n([O-])c2c1CCC2,-199%,"16.4 µM [falling, partial curve]","29.1 µM [falling, single point]"
CCCOc1ccc(N2C(=O)CC(SC(=NC)Nc3ccc(F)cc3)C2=O)cc1 (stereo not drawn),7.46%,"6.51 µM [rising, single point]",

SMILES,cell number change,AC50 [1],AC50 [2]
CCc1nnc(NC(=O)CS(=O)(=O)Cc2ccccc2)s1,12.5%,"4.11 µM [rising, full curve]",
NC(=O)CC1C(=O)N(c2ccc(F)cc2)C(=O)N1NC(=O)CCc1ccccc1 (stereo not drawn),19.4%,"11.6 µM [falling, partial curve]",
CCCCNC(=O)CSc1nc2cc3c(cc2c(=O)n1Cc1ccco1)OCO3,46.6%,"5.17 µM [rising, full curve]","6.51 µM [rising, full curve]"
Cc1ccc2[nH]c(-c3ccccc3)cc(=O)c2c1,-6.66%,"18.4 µM [rising, single point]",
O=C(O)c1ccccc1-c1ccccc1C(=O)NNc1ccc([N+](=O)[O-])cc1,12.8%,,
COC(=O)C1=C(C)NC2=C(C(=O)CCC2)C1c1cn(Cc2ccc(Br)cc2)nc1-c1ccccc1 (stereo not drawn),25.4%,"18.4 µM [rising, single point]",
COC(=O)c1c(-c2ccc(OC)c(OC)c2)csc1N,-1.21%,"0.366 µM [rising, partial curve, poor fit]",
CC(=O)c1ccc(-c2ccc(C(=O)N3CCCc4ccccc43)o2)cc1,21%,,
COc1ccccc1N1CCN(S(=O)(=O)c2c(C)[nH]c(C)c2C(=O)N2CCCCC2)CC1,53.3%,"29.1 µM [rising, single point]","29.1 µM [rising, single point]"
c1ccc(N2CCOCCOCCOCCOCC2)cc1,2.3%,"0.00461 µM [falling, full curve, poor fit]",
Cc1ccc2occ(C(c3nnnn3Cc3ccccc3)N3CCOCC3)c(=O)c2c1 (stereo not drawn),44%,"6.51 µM [rising, partial curve, poor fit]","5.17 µM [rising, full curve]"
Cc1nc(=O)c(-c2ccccc2)c(C)n1CC1CCCO1 (stereo not drawn),-6.48%,"2.31 µM [rising, full curve]",
O=CN1CCN(C(=O)CC(c2ccccc2)c2cc(Br)ccc2O)CC1 (stereo not drawn),-32.8%,"23.1 µM [falling, single point]","29.1 µM [falling, single point]"
CCC(C)c1ccccc1O (stereo not drawn),-1.92%,"29.1 µM [rising, single point]",
CCC(=O)N1CCN(c2ccccc2NC(=O)c2ccc([N+](=O)[O-])o2)CC1,,"11.6 µM [falling, partial curve]",
COc1ccccc1/C=C/C(=O)OCCN1CCOCC1,31.7%,"11.6 µM [rising, partial curve]","14.6 µM [rising, partial curve, poor fit]"
CC1CCN(S(=O)(=O)c2ccc(C(=O)OCc3ccc4c(c3)OCO4)cc2)CC1,-79.9%,,"32.6 µM [falling, partial curve, poor fit]"
COc1ccc(-c2nnc(SCc3ccccc3F)o2)cc1,,"20.6 µM [rising, partial curve]","6.51 µM [rising, single point]"
COc1ccc(/C=C/C(=O)NCc2nc3ccccc3[nH]2)cc1OC,,"4.61 µM [falling, single point]",
